From PMC6476978
These are yes or no findings as the source states them, for the method shown. Binding seen in cells or lysates may run through a third protein. Here binding means that the protein was enriched with, or labelled near, the bait; the list need not be complete.

Target: T1, N protein of VHSV (viral hemorrhagic septicemia virus (VHSV) strain 07.71) (UniProt P24378)
T1 sequence: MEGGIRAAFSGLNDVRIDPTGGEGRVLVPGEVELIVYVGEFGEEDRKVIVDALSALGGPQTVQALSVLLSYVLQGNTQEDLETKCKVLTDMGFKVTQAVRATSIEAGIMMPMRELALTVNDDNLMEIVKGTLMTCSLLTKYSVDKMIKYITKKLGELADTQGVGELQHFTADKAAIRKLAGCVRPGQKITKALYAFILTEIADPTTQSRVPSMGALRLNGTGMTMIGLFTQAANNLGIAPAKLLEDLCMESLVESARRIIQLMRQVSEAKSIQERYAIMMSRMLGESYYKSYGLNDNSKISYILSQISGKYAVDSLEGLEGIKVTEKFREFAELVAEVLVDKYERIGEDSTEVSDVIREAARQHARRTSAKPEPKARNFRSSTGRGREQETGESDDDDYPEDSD
Assay: affinity purification with mass spectrometry; lysate (RIPA buffer) of rainbow trout RBCs exposed to VHSV at MOI 1 for 3 h; immunoprecipitated with monoclonal antibody 2C9 against N protein of VHSV overnight at 4°C, protein A Sepharose; LC ESI-MSMS

Row | Substance | binding
1 | Actin beta (rainbow trout (endogenous in RBCs)) | binds
2 | Histone cluster 2, H2be (rainbow trout (endogenous in RBCs)) | binds
3 | Ribosomal protein L15 (rainbow trout (endogenous in RBCs)) | binds
4 | Histone cluster 2, H3d (rainbow trout (endogenous in RBCs)) | binds
5 | Progesterone immunomodulatory binding factor 1 (rainbow trout (endogenous in RBCs)) | binds
6 | Resistance to inhibitors of cholinesterase 8 homolog B (rainbow trout (endogenous in RBCs)) | binds
7 | Enolase 1 (rainbow trout (endogenous in RBCs)) | binds
8 | Myosin, heavy chain 6 (rainbow trout (endogenous in RBCs)) | binds
9 | Actin gamma 1 (rainbow trout (endogenous in RBCs)) | binds
10 | STE20-like kinase (rainbow trout (endogenous in RBCs)) | binds
11 | Tubulin, alpha 1b (rainbow trout (endogenous in RBCs)) | binds
12 | Peroxiredoxin 1 (rainbow trout (endogenous in RBCs)) | binds
13 | Ribosomal protein S4, X-linked (rainbow trout (endogenous in RBCs)) | binds
14 | Ribosomal protein L5 (rainbow trout (endogenous in RBCs)) | binds
